Test results reported in patent publication US6924313B1.
For part of its entries the source gives two or more results. This list holds those alone. There may be further records. Values given together seem to repeat one measurement (runs, samples, wells or individuals).

Chains of the proteins cited; added tags and fusions are not shown. Residues count along the entry.
UniProt P11597, 18-493 limits assumed: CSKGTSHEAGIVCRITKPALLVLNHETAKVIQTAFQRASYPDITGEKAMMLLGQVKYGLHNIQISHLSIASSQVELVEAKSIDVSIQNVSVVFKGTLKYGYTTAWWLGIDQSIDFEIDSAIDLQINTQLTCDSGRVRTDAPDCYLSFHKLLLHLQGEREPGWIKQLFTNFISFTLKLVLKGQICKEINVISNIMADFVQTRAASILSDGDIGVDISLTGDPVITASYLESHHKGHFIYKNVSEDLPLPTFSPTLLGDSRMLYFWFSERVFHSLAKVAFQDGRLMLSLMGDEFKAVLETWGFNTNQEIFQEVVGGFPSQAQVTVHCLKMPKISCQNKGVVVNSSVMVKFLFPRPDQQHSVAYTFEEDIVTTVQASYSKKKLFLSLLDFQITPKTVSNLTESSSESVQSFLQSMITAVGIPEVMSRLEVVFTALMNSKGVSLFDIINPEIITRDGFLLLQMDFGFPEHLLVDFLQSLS

Target: CETP (Homo sapiens, UniProt P11597)
Assay: CETP activity in vitro ([3H]CE transfer from HDL to LDL)
Settings: read-out: CEPT Activity Assay IC50

IC50: 14.2 µM and 37.5 µM
Compound: OC(CN(Cc1cccc(C(F)(F)F)c1)c1cccc(F)c1)C(F)(F)F (stereo not shown)
